Measured values published in publication PMC9675736.
These are yes or no findings as the source states them, for the method shown. In cells and extracts the contact can be indirect. These calls come from enrichment with a bait or labelling near it, and not all partners need be listed.

The chains behind the UniProt entries cited, without tags or fusion partners.
UniProt P62137: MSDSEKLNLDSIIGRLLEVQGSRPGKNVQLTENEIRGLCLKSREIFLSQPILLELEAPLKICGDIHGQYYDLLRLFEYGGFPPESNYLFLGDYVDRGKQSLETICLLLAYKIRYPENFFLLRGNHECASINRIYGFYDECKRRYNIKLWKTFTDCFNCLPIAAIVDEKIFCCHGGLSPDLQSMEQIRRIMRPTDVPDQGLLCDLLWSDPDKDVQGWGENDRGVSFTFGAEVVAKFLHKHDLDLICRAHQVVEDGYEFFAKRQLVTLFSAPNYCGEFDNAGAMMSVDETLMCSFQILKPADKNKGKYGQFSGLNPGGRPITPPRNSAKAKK

Target: T1, platelet endothelial aggregation receptor 1 (PEAR1), mouse (mouse (endogenous in cultured mouse pulmonary fibroblasts)) (UniProt Q8VIK5)
T1 sequence: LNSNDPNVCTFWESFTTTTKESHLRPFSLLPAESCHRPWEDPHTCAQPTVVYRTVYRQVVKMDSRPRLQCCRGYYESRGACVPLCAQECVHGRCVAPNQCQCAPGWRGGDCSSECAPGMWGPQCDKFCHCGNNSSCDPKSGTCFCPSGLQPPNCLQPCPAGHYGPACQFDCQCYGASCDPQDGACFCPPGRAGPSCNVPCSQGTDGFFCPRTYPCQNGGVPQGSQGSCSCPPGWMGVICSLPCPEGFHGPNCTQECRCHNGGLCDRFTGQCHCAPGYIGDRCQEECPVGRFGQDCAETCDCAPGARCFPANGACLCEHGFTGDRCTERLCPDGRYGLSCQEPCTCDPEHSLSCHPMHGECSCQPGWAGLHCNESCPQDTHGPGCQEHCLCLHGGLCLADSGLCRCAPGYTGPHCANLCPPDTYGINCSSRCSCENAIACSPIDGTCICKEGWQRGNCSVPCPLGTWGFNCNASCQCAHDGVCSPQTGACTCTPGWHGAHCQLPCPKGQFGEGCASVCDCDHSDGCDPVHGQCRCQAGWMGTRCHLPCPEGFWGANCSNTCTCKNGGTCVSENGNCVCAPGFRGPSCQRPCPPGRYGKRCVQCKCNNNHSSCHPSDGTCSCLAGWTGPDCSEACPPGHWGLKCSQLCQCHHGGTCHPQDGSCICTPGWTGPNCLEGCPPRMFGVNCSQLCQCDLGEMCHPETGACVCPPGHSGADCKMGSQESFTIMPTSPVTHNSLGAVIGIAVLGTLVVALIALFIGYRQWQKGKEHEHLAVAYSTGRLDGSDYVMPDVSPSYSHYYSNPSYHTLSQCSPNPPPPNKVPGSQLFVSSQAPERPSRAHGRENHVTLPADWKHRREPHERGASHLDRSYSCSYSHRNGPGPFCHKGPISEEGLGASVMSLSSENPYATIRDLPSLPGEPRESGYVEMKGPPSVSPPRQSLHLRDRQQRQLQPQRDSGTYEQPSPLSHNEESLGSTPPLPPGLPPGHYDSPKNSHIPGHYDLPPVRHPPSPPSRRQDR
Assay: affinity purification with mass spectrometry; immunoprecipitation of mouse fibroblast lysate with PEAR1 antibody, protein mass spectrometry

binding: binds
Substance: protein phosphatase 1 catalytic subunit alpha (PP1α), mouse (from UniProt P62137 1-330) (enzyme)
